{"source": "PubChem BioAssay AID504793, Drosophila RNAi Screening Center, 2011", "screen": "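Whole-genome screen for parts of the DNA damage checkpoint at G2/M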 (primary screen)", "system": "Drosophila S2R+ cells", "reagent": "long dsRNA against Drosophila genes, about 0.25 µg dsRNA per well", "duration": "4 days of dsRNA, then 4 hours of drug before read-out", "challenge": "doxorubicin 0.5 µM for 4 hours to cause double-strand breaks, in cells also given a low, harmless dose of dsRNA against nbs to sensitise the assay", "read-out": "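Per-well count of mitotic cells stained for phospho-histone H3 after doxorubicin exposure, used as mitotic index; counts are raw and not normalised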", "scale": "mitotic cells: higher = more cells in mitosis, weaker G2 arrest", "rule for the call": "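Genes are called active only when high mitotic counts were reproduced with independent dsRNAs and mitosis was checked for delay without damage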", "calls": "active = confirmed in follow-up tests; inactive = not confirmed", "note": "In all, the deposit lists about 23,000 reagents; below is a random part of those with a known target gene and a result. Over the whole deposit, 62 (0.27%) are marked active. 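Calls come from follow-up tests whose scores are not deposited, so confirmed genes may have low counts here; counts are not normalised per plate.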 Raw values vary from plate to plate and are shown uncorrected. The numbers tell different reagents against one gene apart. Names joined by + are all predicted targets of the reagent."}
{"predicted target": "Obp44a (Odorant-binding protein 44a)", "dsRNA no.": 1, "mitotic cells, replicate 1": 5, "activity call": "inactive"}
{"predicted target": "Obp44a (Odorant-binding protein 44a)", "dsRNA no.": 2, "mitotic cells, replicate 1": 8, "activity call": "inactive"}
{"predicted target": "Hrs (Hepatocyte growth factor regulated tyrosine kinase substrate)", "dsRNA no.": 1, "mitotic cells, replicate 1": 5, "activity call": "inactive"}
{"predicted target": "Hrs (Hepatocyte growth factor regulated tyrosine kinase substrate)", "dsRNA no.": 2, "mitotic cells, replicate 1": 3, "activity call": "inactive"}
{"predicted target": "CG18568", "dsRNA no.": 1, "mitotic cells, replicate 1": 4, "activity call": "inactive"}
{"predicted target": "CG18568", "dsRNA no.": 2, "mitotic cells, replicate 1": 10, "activity call": "inactive"}
{"predicted target": "Fum1 (Fumarase 1)", "dsRNA no.": 1, "mitotic cells, replicate 1": 6, "mitotic cells, replicate 2": 13, "activity call": "inactive"}
{"predicted target": "Fum1 (Fumarase 1)", "dsRNA no.": 2, "mitotic cells, replicate 1": 6, "activity call": "inactive"}
{"predicted target": "CG42506 (retired record) + CG43759", "dsRNA no.": 1, "mitotic cells, replicate 1": 4, "activity call": "inactive"}
{"predicted target": "CG42506 (retired record) + CG43759", "dsRNA no.": 2, "mitotic cells, replicate 1": 7, "activity call": "inactive"}
{"predicted target": "CG42506 (retired record) + CG43759", "dsRNA no.": 3, "mitotic cells, replicate 1": 6, "activity call": "inactive"}
{"predicted target": "Myb (Myb oncogene-like)", "dsRNA no.": 1, "mitotic cells, replicate 1": 7, "activity call": "inactive"}
{"predicted target": "CG14671", "dsRNA no.": 1, "mitotic cells, replicate 1": 4, "activity call": "inactive"}
{"predicted target": "CG34166", "dsRNA no.": 1, "mitotic cells, replicate 1": 3, "activity call": "inactive"}
{"predicted target": "CG34166", "dsRNA no.": 2, "mitotic cells, replicate 1": 6, "activity call": "inactive"}
{"predicted target": "Cdep (Chondrocyte-derived ezrin-like domain containing protein)", "dsRNA no.": 1, "mitotic cells, replicate 1": 13, "activity call": "inactive"}
{"predicted target": "Cdep (Chondrocyte-derived ezrin-like domain containing protein)", "dsRNA no.": 2, "mitotic cells, replicate 1": 6, "activity call": "inactive"}
{"predicted target": "Cdep (Chondrocyte-derived ezrin-like domain containing protein)", "dsRNA no.": 3, "mitotic cells, replicate 1": 6, "activity call": "inactive"}
{"predicted target": "jb (jean-baptiste)", "dsRNA no.": 1, "mitotic cells, replicate 1": 11, "activity call": "inactive"}
{"predicted target": "Nemp (Nuclear envelope integral membrane protein)", "dsRNA no.": 1, "mitotic cells, replicate 1": 6, "activity call": "inactive"}
{"predicted target": "Nemp (Nuclear envelope integral membrane protein)", "dsRNA no.": 2, "mitotic cells, replicate 1": 6, "activity call": "inactive"}
{"predicted target": "CG7497", "dsRNA no.": 1, "mitotic cells, replicate 1": 7, "activity call": "inactive"}
{"predicted target": "CG7497", "dsRNA no.": 2, "mitotic cells, replicate 1": 7, "activity call": "inactive"}

Ordered by “mitotic cells, replicate 1” (low to high): 2 of the entries above.
{"predicted target": "CG34166", "dsRNA no.": 1, "mitotic cells, replicate 1": 3, "activity call": "inactive"}
{"predicted target": "CG14671", "dsRNA no.": 1, "mitotic cells, replicate 1": 4, "activity call": "inactive"}
